Article PMC8429438
These are yes or no findings as the source states them, for the method shown. In cells and extracts the contact can be indirect. Binding can be weak; no strength is given.

Target: T1, DnaJC7 (endogenous, PS19 mouse brain) (mouse (endogenous in PS19 mouse brain)) (UniProt Q9QYI3)
T1 sequence: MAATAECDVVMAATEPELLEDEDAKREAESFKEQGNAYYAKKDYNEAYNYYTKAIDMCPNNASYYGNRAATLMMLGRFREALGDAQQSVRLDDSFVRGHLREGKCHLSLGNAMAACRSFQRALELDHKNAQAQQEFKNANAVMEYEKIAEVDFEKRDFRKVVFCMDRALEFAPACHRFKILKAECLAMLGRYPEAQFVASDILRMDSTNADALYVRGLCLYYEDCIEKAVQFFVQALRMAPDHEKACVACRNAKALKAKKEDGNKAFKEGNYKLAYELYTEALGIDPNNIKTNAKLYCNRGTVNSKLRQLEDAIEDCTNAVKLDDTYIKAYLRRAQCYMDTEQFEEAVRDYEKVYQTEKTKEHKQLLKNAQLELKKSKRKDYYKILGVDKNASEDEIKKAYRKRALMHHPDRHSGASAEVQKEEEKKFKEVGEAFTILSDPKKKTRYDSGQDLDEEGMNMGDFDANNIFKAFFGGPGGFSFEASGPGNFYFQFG
Assay: co-IP; PS19 mouse brain lysate (TBS), anti-DnaJC7 antibody on Protein A Dynabeads, 4 °C overnight; western blot with anti-tau and anti-DnaJC7; rabbit IgG as control

Q: With “human 1N4R P301S tau expressed in PS19 tauopathy mouse brain” as the substance, how does the binding read?
A: binds
